Values from PubChem BioAssay AID686937 (Drosophila RNAi Screening Center, 2013)

Test: 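Genes in the fly needed for secretion of protein constitutively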 (primary screen)
Cell system: Drosophila S2 cells expressing secreted horseradish peroxidase
Knock-down reagent: long dsRNA against Drosophila genes
Timing: about 5.5 days (5 days dsRNA, then 12 h reporter induction)
Conditions: reporter expression induced after 5 days of dsRNA, read 12 h later; inducer not stated
Read-out: 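After 5 days of dsRNA and 12 h of reporter induction, medium peroxidase read by chemiluminescence and scored as per-plate z-score; higher values mean more reporter released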
Reading the numbers: z-score: higher = more reporter secreted into medium
In all, the deposit lists about 23,000 reagents; shown is an unselected part of those that have a named target and a result. 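Reduced-secretion tags in replicate 1 do not always agree with the z-scores; no criterion for assigning the tags was given.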 Not all columns of the deposit are shown. Not given: the amount of reagent.

AP-2sigma (GeneID 42525) [SID104195749] | z-score, replicate 1: 0.11
CG14309 (GeneID 42212) [SID104194580] | z-score, replicate 1: 0.37
CG14499 (GeneID 37086) [SID104186262] | z-score, replicate 1: 0.12
CG15375 (GeneID 31356) [SID104197837] | z-score, replicate 1: 0.59
RpL26 (GeneID 40060) [SID104190518] | z-score, replicate 1: -4.55; phenotype, replicate 1: reduced secretion
CG42822 (GeneID 10178916) [SID104193024] | z-score, replicate 1: 0.15
COX5B (GeneID 33918) [SID104181907] | z-score, replicate 1: -0.11
Wdr81 (GeneID 34616) [SID104182777] | z-score, replicate 1: 0.66
CG31368 (GeneID 41437) [SID104194741] | z-score, replicate 1: 0.21
CG31368 (GeneID 41437) [SID104194743] | z-score, replicate 1: 0.27
CG43090 (GeneID 12798122) [SID104197231] | z-score, replicate 1: 0.6
GstE12 (GeneID 37960) [SID104183839] | z-score, replicate 1: 0.03
Mtr3 (GeneID 40173) [SID104190745] | z-score, replicate 1: -0.11
spn-B (GeneID 41746) [SID104196855] | z-score, replicate 1: 0.4
Dad (GeneID 42059) [SID104196434] | z-score, replicate 1: -0.04
Vps29 (GeneID 33295) [SID104180458] | z-score, replicate 1: 0.07

A portion of the results above:
RpL26 (GeneID 40060) [SID104190518] | z-score, replicate 1: -4.55; phenotype, replicate 1: reduced secretion
CG42822 (GeneID 10178916) [SID104193024] | z-score, replicate 1: 0.15
